Reference: PubChem BioAssay AID492960 (National Center for Advancing Translational Sciences (NCATS), 2010)
The shares of active, inactive and inconclusive entries below differ from those in the screen. Where the call is inconclusive, the potency comes from a doubtful curve fit. Active and inactive are the calls of the source. Calls follow the shape of the dose curve; as a rule, active = well fitted curve in the direction sought with a large enough effect; inconclusive = small, poorly fitted or top-dose-only effect, or effect the other way, or another doubt; inactive = no such curve, though single readings can be large or run the other way.

assay: Secondary Assay for lipid storage modulators: HepG2 cell LDSA assay for probe SAR; conditions: HepG2 lipid droplet BODIPY, laser-scanning cytometry, 18-24 h; series mostly up to 46.1 µM
Procedure, shortened: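 Dose-response lipid-storage test: HepG2 cells were fed 400 uM oleic acid with compound for 18-24 h at 24 degrees C. BODIPY 493/503 intensity gave droplet accumulation, and an object ratio was taken against CellTracker Red cell counts. Percent activity was set against 20 uM Triacsin C as full inhibition.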

Structure (SMILES)	Potency
O=C(Nc1cccc2c1cnn2-c1ccc(F)cc1)c1ccccn1	inconclusive: 0.0158 µM [falling, full curve, poor fit]
COc1cc(Nc2ncc(F)c(Nc3ccc4c(n3)NC(=O)C(C)(C)O4)n2)cc(OC)c1OC	inconclusive: 5.6 µM [activator, partial curve, poor fit]
O=C(NC1CCCc2c1cnn2-c1ccc(F)cc1F)c1ccsc1 (stereo unspecified)	inconclusive: 19.9 µM [activator, partial curve, poor fit]
O=C(NCCc1ccc(O)c(O)c1)c1cc2sccc2[nH]1	inconclusive: 5.45 µM [falling, partial curve, poor fit]
CCOc1ccc(CCNC(=O)C2CCCCC2)cc1OCC	inactive
Cc1ccc(NC(=O)c2ccc(CN3CCN(C)CC3)cc2)cc1Nc1nc(-c2cccnc2)cs1	inconclusive: 6.28 µM [activator, full curve]
O=C(c1cc2sccc2n1Cc1ccccc1)N(CCc1ccc(O)c(O)c1)Cc1ccccc1	inactive
CCOc1ccc(CCNC(=O)C2(c3ccccc3)CC2)cc1OCC	inactive
CCOc1ccc(CCNC(=O)c2ccc(N3N=C(C)CC3=O)cc2)cc1OCC	inconclusive: 28.1 µM [falling, single point]
O=C(NC1CCCc2c1cnn2-c1ccc(F)cc1F)c1ccc2cc[nH]c2c1 (stereo unspecified)	inactive
COCCn1c(-c2ccc(C)cc2)cnc1SCC(=O)Nc1nc(C)cs1	inconclusive: 0.0089 µM [falling, full curve, poor fit]

3 compounds from above, ordered by SMILES length, low to high:
Structure (SMILES)	Potency
O=C(NC1CCCc2c1cnn2-c1ccc(F)cc1F)c1ccsc1 (stereo unspecified)	inconclusive: 19.9 µM [activator, partial curve, poor fit]
COCCn1c(-c2ccc(C)cc2)cnc1SCC(=O)Nc1nc(C)cs1	inconclusive: 0.0089 µM [falling, full curve, poor fit]
Cc1ccc(NC(=O)c2ccc(CN3CCN(C)CC3)cc2)cc1Nc1nc(-c2cccnc2)cs1	inconclusive: 6.28 µM [activator, full curve]
